Test results taken from the supplement of paper PMC7666118.
Some of the results follow.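 Rule for the calls: active = dose-dependent thermal stabilisation significant by F-test of dose-response against flat model at 10% FDR; inactive = not significant.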

The chains behind the UniProt entries cited, without tags or fusion partners. Where a name states a change or a piece, a line headed by the entry shows the natural chain unless it says otherwise.
UniProt Q99627: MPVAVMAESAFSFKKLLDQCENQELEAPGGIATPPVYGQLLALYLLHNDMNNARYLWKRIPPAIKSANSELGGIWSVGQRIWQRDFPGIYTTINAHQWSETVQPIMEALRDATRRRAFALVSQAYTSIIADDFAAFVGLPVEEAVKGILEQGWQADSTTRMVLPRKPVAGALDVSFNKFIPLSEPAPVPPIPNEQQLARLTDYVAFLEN
UniProt P46527, whole entry: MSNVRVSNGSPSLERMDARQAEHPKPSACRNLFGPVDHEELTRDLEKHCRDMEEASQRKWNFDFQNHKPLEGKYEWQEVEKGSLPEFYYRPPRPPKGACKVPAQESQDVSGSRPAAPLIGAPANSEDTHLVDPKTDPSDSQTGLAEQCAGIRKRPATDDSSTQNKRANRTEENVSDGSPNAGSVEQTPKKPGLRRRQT
UniProt A6NC98: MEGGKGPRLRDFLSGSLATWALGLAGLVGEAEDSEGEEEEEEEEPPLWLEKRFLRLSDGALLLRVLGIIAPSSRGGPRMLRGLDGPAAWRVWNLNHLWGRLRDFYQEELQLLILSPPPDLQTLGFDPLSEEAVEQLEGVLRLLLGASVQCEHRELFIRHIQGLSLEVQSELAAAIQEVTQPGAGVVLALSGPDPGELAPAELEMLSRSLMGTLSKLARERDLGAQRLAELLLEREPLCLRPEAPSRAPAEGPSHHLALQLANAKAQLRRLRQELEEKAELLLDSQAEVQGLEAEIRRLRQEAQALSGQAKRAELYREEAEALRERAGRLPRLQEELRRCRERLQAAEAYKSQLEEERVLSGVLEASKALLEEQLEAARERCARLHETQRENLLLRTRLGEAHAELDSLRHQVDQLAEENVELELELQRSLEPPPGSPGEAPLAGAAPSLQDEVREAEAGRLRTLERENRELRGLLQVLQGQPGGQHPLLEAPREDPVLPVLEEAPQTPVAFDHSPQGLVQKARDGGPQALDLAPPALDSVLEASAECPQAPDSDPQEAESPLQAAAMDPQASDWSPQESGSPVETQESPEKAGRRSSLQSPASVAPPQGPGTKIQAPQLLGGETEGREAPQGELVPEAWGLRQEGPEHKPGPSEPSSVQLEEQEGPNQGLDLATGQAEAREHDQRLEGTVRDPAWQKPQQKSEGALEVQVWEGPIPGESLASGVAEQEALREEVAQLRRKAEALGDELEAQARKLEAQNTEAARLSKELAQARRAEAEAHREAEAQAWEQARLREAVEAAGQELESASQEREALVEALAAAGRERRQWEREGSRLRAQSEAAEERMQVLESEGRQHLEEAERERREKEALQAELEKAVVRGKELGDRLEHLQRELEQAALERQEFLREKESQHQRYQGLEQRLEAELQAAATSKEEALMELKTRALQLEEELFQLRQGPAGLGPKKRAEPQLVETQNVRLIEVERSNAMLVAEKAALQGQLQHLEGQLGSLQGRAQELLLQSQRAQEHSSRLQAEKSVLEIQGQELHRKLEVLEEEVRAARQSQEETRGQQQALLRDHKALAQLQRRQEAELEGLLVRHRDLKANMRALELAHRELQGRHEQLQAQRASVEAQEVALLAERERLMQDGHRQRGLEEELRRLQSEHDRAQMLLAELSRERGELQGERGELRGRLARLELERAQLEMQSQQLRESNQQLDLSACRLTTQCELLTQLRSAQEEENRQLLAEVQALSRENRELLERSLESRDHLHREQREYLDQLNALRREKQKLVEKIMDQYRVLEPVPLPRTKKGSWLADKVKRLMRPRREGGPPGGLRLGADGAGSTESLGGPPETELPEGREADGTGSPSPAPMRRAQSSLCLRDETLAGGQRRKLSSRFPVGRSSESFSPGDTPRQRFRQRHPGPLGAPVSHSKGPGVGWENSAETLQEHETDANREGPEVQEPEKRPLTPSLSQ
UniProt Q75N03: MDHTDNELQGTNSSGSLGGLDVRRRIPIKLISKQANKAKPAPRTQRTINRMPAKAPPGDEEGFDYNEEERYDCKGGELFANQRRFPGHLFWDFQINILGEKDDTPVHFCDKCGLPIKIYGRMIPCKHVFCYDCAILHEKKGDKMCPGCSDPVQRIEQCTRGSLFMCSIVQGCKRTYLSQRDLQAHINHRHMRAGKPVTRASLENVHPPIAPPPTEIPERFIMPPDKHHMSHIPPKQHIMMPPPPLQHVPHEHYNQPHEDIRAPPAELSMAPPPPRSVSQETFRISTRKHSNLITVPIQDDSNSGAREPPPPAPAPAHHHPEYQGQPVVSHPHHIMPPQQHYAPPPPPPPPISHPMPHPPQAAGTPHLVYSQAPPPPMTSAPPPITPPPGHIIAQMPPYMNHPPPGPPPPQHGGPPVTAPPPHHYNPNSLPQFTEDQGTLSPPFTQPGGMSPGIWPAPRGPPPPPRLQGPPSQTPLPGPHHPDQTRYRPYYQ
UniProt Q8N8E3: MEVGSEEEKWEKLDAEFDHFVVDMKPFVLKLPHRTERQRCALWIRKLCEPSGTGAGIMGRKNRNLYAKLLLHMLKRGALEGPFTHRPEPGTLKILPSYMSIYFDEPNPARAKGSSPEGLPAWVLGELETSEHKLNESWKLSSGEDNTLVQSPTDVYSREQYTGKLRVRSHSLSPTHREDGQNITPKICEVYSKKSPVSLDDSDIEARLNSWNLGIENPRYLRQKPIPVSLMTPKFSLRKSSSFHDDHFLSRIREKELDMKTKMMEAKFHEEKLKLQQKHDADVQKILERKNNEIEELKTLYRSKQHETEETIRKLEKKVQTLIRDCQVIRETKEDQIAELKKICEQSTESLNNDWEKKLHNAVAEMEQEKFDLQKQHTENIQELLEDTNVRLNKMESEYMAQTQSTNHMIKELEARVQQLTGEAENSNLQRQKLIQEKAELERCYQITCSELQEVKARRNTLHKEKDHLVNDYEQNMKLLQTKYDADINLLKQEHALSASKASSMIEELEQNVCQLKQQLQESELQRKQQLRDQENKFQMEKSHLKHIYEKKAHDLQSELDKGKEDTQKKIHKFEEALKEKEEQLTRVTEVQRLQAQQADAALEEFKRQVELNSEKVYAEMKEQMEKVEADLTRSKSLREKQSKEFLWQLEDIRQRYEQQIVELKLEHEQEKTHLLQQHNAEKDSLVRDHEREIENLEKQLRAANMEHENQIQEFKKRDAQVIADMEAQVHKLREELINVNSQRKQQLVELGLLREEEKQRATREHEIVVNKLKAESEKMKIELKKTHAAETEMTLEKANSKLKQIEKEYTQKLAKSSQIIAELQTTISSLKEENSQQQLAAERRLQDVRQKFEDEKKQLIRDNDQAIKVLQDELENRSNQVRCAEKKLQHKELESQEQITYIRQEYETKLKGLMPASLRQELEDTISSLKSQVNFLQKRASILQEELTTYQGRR
UniProt Q9H6F5: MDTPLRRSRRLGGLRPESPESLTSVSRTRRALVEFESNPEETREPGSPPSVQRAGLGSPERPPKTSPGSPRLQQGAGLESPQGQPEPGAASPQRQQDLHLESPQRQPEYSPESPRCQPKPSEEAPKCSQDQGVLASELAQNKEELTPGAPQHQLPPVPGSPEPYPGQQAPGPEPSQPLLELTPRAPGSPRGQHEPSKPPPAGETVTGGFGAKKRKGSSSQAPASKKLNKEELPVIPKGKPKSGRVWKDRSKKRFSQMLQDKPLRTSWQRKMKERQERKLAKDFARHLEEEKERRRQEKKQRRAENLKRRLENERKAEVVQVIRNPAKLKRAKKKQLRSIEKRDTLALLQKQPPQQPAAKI
UniProt Q8N2M8: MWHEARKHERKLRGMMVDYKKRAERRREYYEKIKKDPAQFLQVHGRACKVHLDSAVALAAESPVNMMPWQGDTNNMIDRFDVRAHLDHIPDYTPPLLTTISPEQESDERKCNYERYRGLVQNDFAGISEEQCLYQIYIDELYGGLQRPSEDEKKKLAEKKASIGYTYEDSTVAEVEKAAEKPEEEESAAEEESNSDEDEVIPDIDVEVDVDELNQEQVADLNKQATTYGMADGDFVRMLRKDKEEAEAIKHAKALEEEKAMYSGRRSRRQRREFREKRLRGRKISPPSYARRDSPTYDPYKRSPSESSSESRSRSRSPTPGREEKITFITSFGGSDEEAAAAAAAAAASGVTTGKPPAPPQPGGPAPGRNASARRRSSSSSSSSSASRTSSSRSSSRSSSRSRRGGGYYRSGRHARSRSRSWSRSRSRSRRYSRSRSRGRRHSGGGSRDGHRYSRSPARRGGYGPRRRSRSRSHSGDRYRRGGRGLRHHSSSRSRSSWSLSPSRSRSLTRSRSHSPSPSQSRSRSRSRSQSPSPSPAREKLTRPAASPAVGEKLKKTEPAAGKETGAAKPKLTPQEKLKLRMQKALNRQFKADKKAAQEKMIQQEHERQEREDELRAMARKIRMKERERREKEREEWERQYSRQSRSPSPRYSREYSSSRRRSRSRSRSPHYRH
UniProt Q9UNS2: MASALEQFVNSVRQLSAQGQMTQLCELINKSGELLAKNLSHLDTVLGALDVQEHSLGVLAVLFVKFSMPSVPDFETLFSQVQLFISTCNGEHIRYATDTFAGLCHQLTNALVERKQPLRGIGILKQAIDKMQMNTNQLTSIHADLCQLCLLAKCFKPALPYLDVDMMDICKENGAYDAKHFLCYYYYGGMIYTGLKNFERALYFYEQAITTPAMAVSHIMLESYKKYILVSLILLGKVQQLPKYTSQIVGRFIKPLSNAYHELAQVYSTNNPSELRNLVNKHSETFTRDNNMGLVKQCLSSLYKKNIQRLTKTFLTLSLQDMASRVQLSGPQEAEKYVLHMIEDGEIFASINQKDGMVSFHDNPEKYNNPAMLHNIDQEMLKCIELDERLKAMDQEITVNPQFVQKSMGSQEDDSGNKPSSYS
UniProt Q00534, whole entry: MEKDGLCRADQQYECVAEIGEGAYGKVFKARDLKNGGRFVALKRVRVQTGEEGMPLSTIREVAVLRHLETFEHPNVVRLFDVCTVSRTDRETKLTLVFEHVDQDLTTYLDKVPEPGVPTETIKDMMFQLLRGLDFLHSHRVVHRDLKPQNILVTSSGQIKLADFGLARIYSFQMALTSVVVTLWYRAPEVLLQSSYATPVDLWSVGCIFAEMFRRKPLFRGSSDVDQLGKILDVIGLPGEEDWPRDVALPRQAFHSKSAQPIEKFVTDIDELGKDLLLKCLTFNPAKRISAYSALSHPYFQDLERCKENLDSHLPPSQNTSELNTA
UniProt Q96HQ2: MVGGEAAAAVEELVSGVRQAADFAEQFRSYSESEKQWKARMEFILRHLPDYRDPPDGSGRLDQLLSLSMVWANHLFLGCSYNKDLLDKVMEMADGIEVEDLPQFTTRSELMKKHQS

Compound: Nc1nc2c(ncn2[C@@H]2O[C@H](COP(=O)(O)OP(=O)(O)OP(=O)(O)O)[C@@H](O)[C@H]2O)c(=O)[nH]1
Experiment: dose-dependent thermal stabilisation call (2D-TPP, DLPTP, 10% FDR) (binary (1 = stabilised)); higher = stabilised by the compound
Details: system: Jurkat gel-filtered lysate; concentration range 1-500 µM

dose-dependent thermal stabilisation call, inactive:
COPS8 (UniProt Q99627) 0
CDKN1B (UniProt P46527) 0
CCDC88B (UniProt A6NC98) 0
CBLL1 (UniProt Q75N03) 0
CEP112 (UniProt Q8N8E3) 0
CCDC86 (UniProt Q9H6F5) 0
CLASRP (UniProt Q8N2M8) 0
COPS3 (UniProt Q9UNS2) 0
CDK6 (UniProt Q00534) 0
CDKN2AIPNL (UniProt Q96HQ2) 0

Quoted at random: 2 entries already listed.
dose-dependent thermal stabilisation call, inactive:
CBLL1 (UniProt Q75N03) 0
CDK6 (UniProt Q00534) 0
